The record followed here is patent US20250304672A1.

No constants are given. Whether binding was seen depends on the method and setting. Some results given as binding are weak or reduced against the parent protein; the word gives no strength.

Assay [1] concerns the target T1, RGMa in mouse cortical neurons (mouse) (UniProt Q6PCX7).
T1 sequence (looked up): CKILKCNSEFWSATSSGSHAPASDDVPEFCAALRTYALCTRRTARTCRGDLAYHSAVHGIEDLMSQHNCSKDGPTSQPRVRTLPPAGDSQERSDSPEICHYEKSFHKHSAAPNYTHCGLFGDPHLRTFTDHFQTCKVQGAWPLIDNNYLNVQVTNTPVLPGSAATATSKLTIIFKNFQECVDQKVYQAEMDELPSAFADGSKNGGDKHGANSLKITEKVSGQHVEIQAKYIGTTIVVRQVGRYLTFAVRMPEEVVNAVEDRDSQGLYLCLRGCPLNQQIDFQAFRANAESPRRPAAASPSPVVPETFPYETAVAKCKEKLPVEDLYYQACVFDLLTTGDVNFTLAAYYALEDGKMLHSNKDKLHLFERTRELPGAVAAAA
In words: western blot of mouse cortical neuron lysates.

The target of assay [2] is T1, RGMa in mouse cortical neurons (mouse). In words: immunostaining of cultured mouse primary cortical neurons.

B1: AE12-1 (antibody, V domains shown)
VH: EVQLVQSGAEVKKPGASVKVSCKASGYTFTSHGISWVRQAPGQGLDWMGWISPYSGNTNYAQKLQGRVTMTTDTSTSTAYMELSSLRSEDTAVYYCARVGSGPYYYMDVWGQGTLVTVSS
VL: QSALTQPRSVSGSPGQSVTISCTGTSSSVGDSIYVSWYQQHPGKAPKLMLYDVTKRPSGVPDRFSGSKSGNTASLTISGLQAEDEADYYCCSYAGTDTLFGGGTKVTVL
Regarding B1, the binding result in assay [1] was “binds”.

B2: AE12-1-Y (antibody, V domains shown)
VH: EVQLVQSGAEVKKPGASVKVSCKASGYTFTSHGISWVRQAPGQGLDWMGWISPYSGNTNYAQKLQGRVTMTTDTSTSTAYMELSSLRSEDTAVYYCARVGSGPYYYMDVWGQGTLVTVSS
VL: QSALTQPRSVSGSPGQSVTISCTGTSSSVGDSIYVSWYQQHPGKAPKLMLYDVTKRPSGVPDRFSGSKSGNTASLTISGLQAEDEADYYCYSYAGTDTLFGGGTKVTVL
Take B2: the binding result in assay [2] and in assay [1] was “binds” each time.
